Laboratory results reported in paper PMC4559766.
These are yes or no findings as the source states them, for the method shown. Some binding calls cover weakened binding; strength is not graded here.

Sequences of proteins named here, by UniProt entry; tags and fusion partners are left off. Residues count along the entry.
UniProt P07724, residues 25-608: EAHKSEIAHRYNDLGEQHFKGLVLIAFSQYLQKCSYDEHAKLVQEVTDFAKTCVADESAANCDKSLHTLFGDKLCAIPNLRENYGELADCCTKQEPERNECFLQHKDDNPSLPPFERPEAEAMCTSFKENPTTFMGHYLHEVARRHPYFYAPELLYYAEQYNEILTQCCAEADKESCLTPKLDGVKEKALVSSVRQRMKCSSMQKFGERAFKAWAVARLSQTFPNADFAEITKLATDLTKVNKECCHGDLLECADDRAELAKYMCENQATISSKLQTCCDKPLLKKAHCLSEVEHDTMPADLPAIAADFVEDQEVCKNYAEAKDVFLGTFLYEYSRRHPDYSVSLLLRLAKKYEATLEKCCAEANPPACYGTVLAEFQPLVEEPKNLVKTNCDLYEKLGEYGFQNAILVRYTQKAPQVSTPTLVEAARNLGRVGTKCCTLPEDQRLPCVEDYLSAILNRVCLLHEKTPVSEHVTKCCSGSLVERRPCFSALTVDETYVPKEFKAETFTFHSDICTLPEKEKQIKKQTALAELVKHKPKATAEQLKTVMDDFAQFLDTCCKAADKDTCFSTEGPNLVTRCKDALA
UniProt P02768, residues 25-609: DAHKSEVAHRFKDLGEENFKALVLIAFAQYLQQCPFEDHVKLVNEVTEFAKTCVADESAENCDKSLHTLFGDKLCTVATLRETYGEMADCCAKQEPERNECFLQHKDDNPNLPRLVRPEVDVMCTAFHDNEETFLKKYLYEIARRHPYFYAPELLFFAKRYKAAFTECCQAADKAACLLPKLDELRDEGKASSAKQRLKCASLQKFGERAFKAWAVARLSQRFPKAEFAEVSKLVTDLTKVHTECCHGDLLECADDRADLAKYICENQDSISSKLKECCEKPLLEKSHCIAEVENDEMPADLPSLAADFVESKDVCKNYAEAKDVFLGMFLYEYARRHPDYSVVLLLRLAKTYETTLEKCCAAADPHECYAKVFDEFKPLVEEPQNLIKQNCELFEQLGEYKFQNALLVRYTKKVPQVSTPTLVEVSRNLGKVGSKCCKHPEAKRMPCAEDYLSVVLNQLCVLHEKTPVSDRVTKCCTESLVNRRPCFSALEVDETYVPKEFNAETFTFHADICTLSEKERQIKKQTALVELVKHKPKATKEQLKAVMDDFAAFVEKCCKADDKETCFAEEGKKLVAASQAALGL

Columns and labels:
[1] = biological target: Mouse serum albumin (mouse) (UniProt P07724); assay: ELISA; HSA or MSA (100 μg/ml in 0.1 M NaHCO3) coated on the plate, blocked with 1% casein; phage clones in 4-fold serial dilution from 10^12 particles, 25 °C, […]; detected by rabbit anti-M13 phage antibody and HRP-conjugated goat anti-rabbit IgG, A405; only the target purified
[2] = biological target: Human serum albumin (human) (UniProt P02768); assay: as above

WQRPSSW [7-mer peptide WQRPSSW shown on phage]
binding [1]: binds | binding [2]: binds
